Results published in US5837282A, “Ionophore-mediated liposome loading” (priority 1996, dated 1998).
Like-named read-outs stand apart in the source and are kept apart here.

Assays:
[1] = for uptake prior to addition of A23187: D/L 0.35, 45 min
[2] = Drug uptake/leakage after removal of nigericin (spin column, dialysis); settings: SPM/Chol LUVs; nigericin 1 ng/μmol lipid; D/L 0.2; 60 °C
Experimental: Uptake was monitored for LUVs containing 300 mM K2 SO4 at a nigericin concentration of 1 ng/μmol lipid (.box-solid.), and for LUVs which were preincubated with nigericin for 5 min at 60° C., and then passed down a spin column prior to addition of the drug (.circle-solid.).
Thus, an aliquot of nigericin (1 ng NIG/μmol lipid) was added to a sample of SPM/Chol LUVs containing 300 mm KH2 PO4 and the temperature was increased to 60° C. for 5 min to ensure association of nigericin with the lipid. The sample was then exhaustively dialysed at room temperature against 300 mM sucrose for 20 hours, following which an aliquot was passed down a spin column prior to drug loading with VINC (FIG. 10B).
To ensure that such was not the case, control uptake experiments were performed on LUVs containing ethylammonium sulfate and amylammonium sulfate which were subjected to the same conditions.

[3] = SPM/Chol LUVs; i.v., mice
[4] = DSPC/Chol LUVs, 600 mM K2SO4, 10^4-fold reduction of nigericin, 60 °C

## O=C(O)c1cn(C2CC2)c2cc(N3CCNCC3)c(F)cc2c1=O [Ciprofloxacin, ciprofloxacin]
[1]; DSPC/Chol LUVs, 300 mM CaCl2
  time of onset of significant leakage of the drug after uptake: ≤ 30 min
[1]; DSPC/Chol LUVs, 300 mM CaCl2, D/L 0.3, A23187 0.1 μg/μmol lipid, 60 °C, external 300 mM sucrose
  Retention: poor
[1]; DSPC/Chol LUVs, 300 mM CaCl2, D/L 0.3, A23187 1.0 μg/μmol lipid, 60 °C, external 300 mM sucrose
  Retention: poor
[1]; DSPC/Chol LUVs, 300 mM MgSO4, D/L 0.34, A23187 1.0 μg/μmol lipid, 60 °C, external 300 mM sucrose
  Retention: excellent
[1]; DSPC/Chol LUVs, 300 mM MnSO4, A23187 0.1 μg/μmol lipid, 60 °C, without EDTA, 3 hours
  stability of uptake: stable
[1]; DSPC/Chol LUVs, 300 mM MnSO4, D/L 0.27-0.35, A23187 0.1 μg/μmol lipid, 60 °C, external 300 mM sucrose
  Retention: excellent
[1]; DSPC/Chol LUVs, 300 mM MnSO4, D/L 0.27-0.35, A23187 0.1 μg/μmol lipid, 60 °C, external 300 mM sucrose + 3 mM EDTA
  Retention: excellent
[1]; DSPC/Chol LUVs, 300 mM MnSO4, 60 °C, 3 mM external EDTA
  uptake prior to addition of A23187: about 18%
[1]; DSPC/Chol LUVs, 300 mM MnSO4, 60 °C, without EDTA
  uptake prior to addition of A23187: about 35%
[1]; SPM/Chol LUVs
  external pH optimum for uptake via both nigericin and A23187: ~6
[1]; SPM/Chol LUVs, 300 mM MgSO4 pH 6.5, D/L 0.2, A23187 0.1 μg/μmol lipid, 60 °C, external 300 mM sucrose + 15 mM EDTA pH 4.4
  Retention: excellent
[1]; SPM/Chol LUVs, 300 mM MgSO4 pH 6.5, D/L 0.2, A23187 0.1 μg/μmol lipid, 60 °C, external 300 mM sucrose + 15 mM EDTA pH 5.9
  Retention: excellent
[1]; SPM/Chol LUVs, 300 mM MgSO4 pH 6.5, D/L 0.2, A23187 0.1 μg/μmol lipid, 60 °C, external 300 mM sucrose + 15 mM EDTA pH 7.0
  Retention: excellent
[1]; SPM/Chol LUVs, 300 mM MgSO4 pH 6.5, D/L 0.2, A23187 0.1 μg/μmol lipid, 60 °C, external 300 mM sucrose + 20 mM Hepes 15 mM EDTA pH 6.0
  Retention: excellent
[1]; SPM/Chol LUVs, 300 mM MgSO4 pH 6.5, D/L 0.2, A23187 0.1 μg/μmol lipid, 60 °C, external 300 mM sucrose + 20 mM Hepes 15 mM EDTA pH 7.0
  Retention: excellent
[1]; SPM/Chol LUVs, 300 mM MgSO4 pH 6.5, D/L 0.2, A23187 0.5 μg/μmol lipid, 60 °C, external 300 mM sucrose + 20 mM Hepes 15 mM EDTA pH 6.0
  Retention: excellent
[1]; SPM/Chol LUVs, 300 mM MnSO4, D/L 0.2, A23187 0.1 μg/μmol lipid, 60 °C, external 300 mM sucrose + 15 mM EDTA pH 4.4
  Retention: excellent
[1]; SPM/Chol LUVs, 300 mM MnSO4, D/L 0.2, A23187 0.1 μg/μmol lipid, 60 °C, external 300 mM sucrose + 15 mM EDTA pH 5.9 (table prints 59)
  Retention: excellent
DSPC/Chol LUVs, 300 mM K2SO4, D/L 0.3, nigericin 1000 ng/μmol lipid, 60 °C, external 300 mM sucrose (text: over 3 hours)
  Retention: excellent
DSPC/Chol LUVs, 300 mM K2SO4, D/L 0.3, nigericin 1000 ng/μmol lipid, 60 °C, external 300 mM sucrose (text: over 3 hours), listed as CIPRO
  Retention: excellent retention
DSPC/Chol LUVs, 300 mM K2SO4, no nigericin, 60 °C
  drug uptake in response to the K+ gradient alone: Little or no drug uptake
[4]
  rate of uptake: significant decrease
  time required to obtain uptake levels of 80% or greater: at least 45 min
DSPC/Chol LUVs, 600 mM K2SO4, 60 °C
  change in uptake on reducing nigericin by a factor of 10 (0.1 μg/μmol lipid) or 10^3 (1 ng/μmol lipid): no change in uptake
DSPC/Chol LUVs, 600 mM K2SO4, D/L 0.3, nigericin 1 ng/μmol lipid, 60 °C, external 300 mM sucrose
  Retention: excellent
DSPC/Chol LUVs, 600 mM K2SO4, D/L 0.3, nigericin 100 ng/μmol lipid, 60 °C, external 300 mM sucrose
  Retention: excellent
DSPC/Chol LUVs, 600 mM K2SO4, D/L 0.37, nigericin 0.1 ng/μmol lipid, 60 °C, external 300 mM sucrose
  Retention: excellent
DSPC/Chol LUVs, K2SO4, nigericin, 60 °C
  influence of increasing internal salt concentration to 600 mM on uptake: not influenced
SPM/Chol LUVs, 300 mM K2SO4 pH 6.1, D/L 0.2, nigericin 0.5 ng/μmol lipid, 70 °C, external 300 mM sucrose + 20 mM Hepes pH 5.5
  Retention: excellent
SPM/Chol LUVs, 300 mM K2SO4 pH 6.1, D/L 0.2, nigericin 0.5 ng/μmol lipid, 70 °C, external 300 mM sucrose + 20 mM Hepes pH 7.0
  Retention: poor
SPM/Chol LUVs, 300 mM K2SO4 pH 6.1, D/L 0.2, nigericin 1 ng/μmol lipid, 60 °C, external 300 mM sucrose + 20 mM Hepes pH 6.2
  Retention: excellent
SPM/Chol LUVs, 300 mM K2SO4 pH 6.1, D/L 0.2, nigericin 1 ng/μmol lipid, 60 °C, external 300 mM sucrose + 20 mM Hepes pH 7.0
  Retention: excellent
SPM/Chol LUVs, 300 mM K2SO4 pH 7.4, D/L 0.2, nigericin 1 ng/μmol lipid, 60 °C, external 300 mM sucrose
  Retention: fair
SPM/Chol LUVs, 300 mM K2SO4 pH 7.4, D/L 0.2, nigericin 1 ng/μmol lipid, 60 °C, external 300 mM sucrose + 20 mM Hepes pH 6.0
  Retention: excellent
SPM/Chol LUVs, 300 mM K2SO4 pH 7.4, D/L 0.2, nigericin 1 ng/μmol lipid, 60 °C, external 300 mM sucrose + 20 mM Hepes pH 7.0
  Retention: excellent
SPM/Chol LUVs, HEPES-buffered sucrose pH 6.2, 60 °C, nigericin 1 ng/μmol lipid
  time to achieve 100% uptake: 60 min
SPM/Chol LUVs, external pH 5.5, 70 °C, nigericin 0.5 ng/μmol lipid
  time to achieve 100% uptake: 90 min
[2]
  rate of uptake after passing LUVs down a G-50 spin column prior to drug addition: significantly reduced
[3]
  in vivo retention, A23187 system versus K2SO4/nigericin: superior
  in vivo retention, A23187 system versus methylammonium sulfate LUVs: similar
